Test results taken from PubChem BioAssay AID588590 (National Center for Advancing Translational Sciences (NCATS), 2011).
Where “and” joins values, the source holds several entries; their conditions need not be identical. Identical values can stand only once. Screen size: about 390,000 compounds; about 4,000 (1%) were called active. Inconclusive results, whose numbers are uncertain, are shown with a selection of clear calls. Calls come from the whole dose curve; as a rule, active = well fitted inhibition curve with a large enough effect; inconclusive = small, poorly fitted or top-dose-only effect, or another doubt; inactive = no such curve, though single readings can be large or run the other way. Where the call is inconclusive, the potency comes from a doubtful curve fit.

Sequences of proteins named here, by UniProt entry; tags and fusion partners are left off. A change or cut given only in a name is not applied to a line headed by its entry.
UniProt Q9UNA4: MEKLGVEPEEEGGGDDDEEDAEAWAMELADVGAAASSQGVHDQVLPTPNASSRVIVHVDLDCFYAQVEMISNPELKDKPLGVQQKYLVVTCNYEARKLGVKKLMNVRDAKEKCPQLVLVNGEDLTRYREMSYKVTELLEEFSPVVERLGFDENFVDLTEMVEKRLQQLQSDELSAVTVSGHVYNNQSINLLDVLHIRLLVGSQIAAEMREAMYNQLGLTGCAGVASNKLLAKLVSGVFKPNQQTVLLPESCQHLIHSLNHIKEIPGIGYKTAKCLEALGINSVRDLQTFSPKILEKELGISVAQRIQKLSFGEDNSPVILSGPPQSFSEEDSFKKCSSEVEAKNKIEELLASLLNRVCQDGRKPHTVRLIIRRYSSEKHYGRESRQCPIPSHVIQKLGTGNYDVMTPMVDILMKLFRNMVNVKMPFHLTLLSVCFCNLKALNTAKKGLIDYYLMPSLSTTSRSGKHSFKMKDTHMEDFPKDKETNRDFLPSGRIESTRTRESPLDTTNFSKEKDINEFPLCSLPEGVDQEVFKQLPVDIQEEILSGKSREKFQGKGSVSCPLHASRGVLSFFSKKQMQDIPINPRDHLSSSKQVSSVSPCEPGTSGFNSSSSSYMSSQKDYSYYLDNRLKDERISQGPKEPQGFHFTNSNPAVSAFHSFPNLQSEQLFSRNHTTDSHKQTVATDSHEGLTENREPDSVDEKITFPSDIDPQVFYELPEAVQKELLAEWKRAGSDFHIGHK

Each molecule was assayed against DNA polymerase iota (Homo sapiens) (UniProt Q9UNA4) (assay: qHTS for Inhibitors of Polymerase Iota). Details: Pol iota fluorescent replication assay, 10 min; series mostly up to 115 µM.
Outline: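 Fluorescent replication assay read twice, at 0 min and 10 min after adding 50 nM (final) substrate. Enzyme (10 nM) and compounds were first incubated 15 min at room temperature; enzyme-free buffer wells were negative controls.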
Potency is the fitted concentration of half-maximal effect.

Which Potency does the source give for CCOc1ccc(N(C)c2ccc(/C=C3/SC(=S)NC3=O)cc2)cc1 here?
The Potency was inconclusive: 10 µM [inhibitor, partial curve, poor fit].

How did the Potency turn out when CCCN(CCC)S(=O)(=O)c1ccc2c(c1)N(CC(=O)NCc1ccc(F)cc1Cl)C(=O)CS2 was run?
The Potency was “inactive”.

Which Potency does the source give for CCN1CCN(CC(=O)Nc2cccc(C)c2)C(=O)C1=O here?
The Potency was inconclusive: 89.1 µM [inhibitor, single point].

For O=C(Nc1cccc(Cl)c1)N(CCN1CCOCC1)Cc1cccc(Cl)c1, which Potency is on record?
Its Potency is inconclusive: 79.4 µM [inhibitor, single point].

NC(=S)n1[nH]c(-c2ccc([N+](=O)[O-])cc2)c(N=Nc2cccc([N+](=O)[O-])c2)c1=O was tested. Which Potency did it give?
The Potency was inconclusive: 31.6 µM [inhibitor, partial curve, poor fit].

For COc1ccc(S(=O)(=O)N2CCC(C(N)=O)(N3CCCCC3)CC2)cc1, which Potency is on record?
Its Potency is inconclusive: 79.4 µM [inhibitor, single point].

With Cc1cc(C(C)(C)C)cc(C)c1C[n+]1ccc2ccccc2c1 as the molecule, how does the Potency read?
Its Potency is inconclusive: 2.51 µM [inhibitor, full curve, poor fit].

How did the Potency turn out when CCOC(=O)c1ccc2ncc(C(=O)OCC)c(NCc3ccco3)c2c1 was run?
The Potency was inconclusive: 28.2 µM [inhibitor, partial curve, poor fit].

With CC(=O)N1CC(=O)N(CC(=O)Nc2ccc(Br)cc2)C1=S as the molecule, how does the Potency read?
The Potency was inconclusive: 89.1 µM [inhibitor, single point].

With CC1(C)C(=O)OC(/C=C\c2ccccc2)C(C)(C)C1=O (stereo unspecified) as the molecule, how does the Potency read?
Its Potency is inconclusive: 79.4 µM [inhibitor, single point].

How did the Potency turn out when CC12CCC(=O)N1C(C(=O)OCC(=O)Nc1sccc1C#N)CS2 (stereo unspecified) was run?
The Potency was inconclusive: 28.2 µM [inhibitor, partial curve, poor fit].

With CC(=O)c1cccc(S(=O)(=O)N2CCC(C(=O)N(C)Cc3ccc(Cl)s3)CC2)c1 as the molecule, how does the Potency read?
The Potency was inconclusive: 56.2 µM [inhibitor, partial curve, poor fit].

Which Potency does the source give for O=C(Cc1ccccc1)NC1CC(=O)N(c2ccccc2)C1 (stereo unspecified) here?
Its Potency is “inactive”.

With Cc1ccc(-c2csc(C3C(N)=NC(S)=C(C#N)C34CCCCC4)n2)cc1 (stereo unspecified) as the molecule, how does the Potency read?
Its Potency is inconclusive: 35.5 µM [inhibitor, partial curve, poor fit].

Which Potency does the source give for O=[N+]([O-])C(=C1Nc2ccccc2N1)C(Cl)=C(Cl)Cl here?
The Potency was active: 50.1 µM.

For Cc1ccc(/C=N/Nc2nncn2N)cc1, which Potency is on record?
The Potency was active: 0.891 µM.

For Cn1cc(C2=C(c3ccc(Cl)cc3Cl)C(=O)NC2=O)c2ccccc21, which Potency is on record?
Its Potency is inconclusive: 39.8 µM [inhibitor, single point] and inconclusive: 25.1 µM [inhibitor, partial curve].

For O=C(COC(=O)/C=C/c1ccc([N+](=O)[O-])cc1)Nc1ccc2[nH]c(=O)[nH]c2c1, which Potency is on record?
Its Potency is inconclusive: 56.2 µM [inhibitor, partial curve, poor fit].

For O=c1cc(O)nc(SCc2ccccc2)n1-c1ccccc1, which Potency is on record?
Its Potency is inconclusive: 25.1 µM [inhibitor, full curve, poor fit] and inconclusive: 28.2 µM [inhibitor, full curve].

For CN(C)S(=O)(=O)c1cccc(NC(=O)COC(=O)c2ccc([N+](=O)[O-])o2)c1, which Potency is on record?
The Potency was “inactive”.

How did the Potency turn out when CC(C)CC1Nc2ncnc(N3CCN(c4ccccc4)CC3)c2N(Cc2ccc(Br)cc2)C1=O (stereo unspecified) was run?
The Potency was inconclusive: 39.8 µM [inhibitor, partial curve].

O=[S+]([O-])([O-])c1ccc2c(c1)cc([S+](=O)([O-])[O-])c1nn(-c3ccc(/C=C/c4ccc(-n5nc6c([S+](=O)([O-])[O-])cc7cc([S+](=O)([O-])[O-])ccc7c6n5)cc4[S+](=O)([O-])[O-])c([S+](=O)([O-])[O-])c3)nc12 was tested. Which Potency did it give?
Its Potency is inconclusive: 20 µM [inhibitor, full curve, poor fit].

For COc1ccccc1N1CCN(C(=O)CN2C(=O)COc3ccc(S(=O)(=O)N4CCCCCC4)cc32)CC1, which Potency is on record?
The Potency was inconclusive: 70.8 µM [inhibitor, single point].

How did the Potency turn out when Fc1cccc(Nc2nc(-c3ccncc3)nc3ccccc23)c1 was run?
The Potency was inconclusive: 17.8 µM [inhibitor, full curve, poor fit].

For CCc1ccc(Nc2nn(-c3ccc(OC(F)(F)F)cc3)nc2C(C)=O)cc1, which Potency is on record?
Its Potency is “inactive”.

Cc1ccc2c(/C=C/c3ccc(N(C)C)cc3)c(C)cnc2c1 was tested. Which Potency did it give?
The Potency was inconclusive: 89.1 µM [inhibitor, single point].

With O=C(Nc1sc2c(c1C(=O)O)CCCC2)c1cccc(Cl)c1 as the molecule, how does the Potency read?
Its Potency is inconclusive: 56.2 µM [inhibitor, partial curve, poor fit].

Which Potency does the source give for COc1ccc(-c2cc(C(F)(F)F)nc(S(C)(=O)=O)n2)cc1 here?
Its Potency is inconclusive: 14.1 µM [inhibitor, partial curve] and inconclusive: 35.5 µM [inhibitor, partial curve, poor fit].

With CCOC(=O)c1cc2c(=O)n3ccccc3nc2n(C(C)C)c1=NC(=O)c1cc2ccccc2o1 as the molecule, how does the Potency read?
Its Potency is “inactive”.

With N=c1c(C(=O)NCCc2ccccc2)cc2c(=O)n3ccccc3nc2n1Cc1ccco1 as the molecule, how does the Potency read?
The Potency was inconclusive: 31.6 µM [inhibitor, partial curve, poor fit].

How did the Potency turn out when CCN(CC)CCNC(=O)c1cn(CC)c2cc(N3CCN(C)CC3)c(F)cc2c1=O was run?
Its Potency is inconclusive: 14.1 µM [inhibitor, partial curve, poor fit].

Which Potency does the source give for O=C(c1cc(-c2ccc(Cl)cc2)on1)N1CCN(c2ccccc2)CC1 here?
Its Potency is inconclusive: 89.1 µM [inhibitor, single point].

CCN(CCCNC(=O)CCNC(=O)Cn1cnc2ccccc2c1=O)c1ccccc1 was tested. Which Potency did it give?
The Potency was inconclusive: 3.16 µM [inhibitor, full curve, poor fit].

Which Potency does the source give for COCCCNC(=O)/C(C#N)=C/c1c(N2CCN(c3ccccc3)CC2)nc2c(C)cccn2c1=O here?
The Potency was inconclusive: 14.1 µM [inhibitor, partial curve, poor fit].

How did the Potency turn out when O=C(COC(=O)c1nc(Cl)ccc1Cl)NCc1ccc(Cl)cc1Cl was run?
The Potency was “inactive”.

For O=C1CCN(CCc2ccccc2)CCN1C(CSc1ccc(Br)cc1)Cc1ccccc1 (stereo unspecified), which Potency is on record?
The Potency was inconclusive: 89.1 µM [inhibitor, single point].
